This is one part of the list. Further columns of the screen follow, without active or inactive calls. The list favours compounds with an active or inconclusive main result. Potencies come from curve fits of mixed quality, noted in brackets.
Assay: qHTS Assay for Lipid Storage Modulators in Drosophila S3 Cells;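 on cell number change: cells counted by Cell Tracker Red CMTPX staining in the red channel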
Settings: BODIPY lipid droplet fluorescence, 18-24 h; for cell number change: measured here: cell count max response, cells fed with added oleic acid
In short: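 Drosophila S3 cells loaded with oleic acid (400 uM, as added) and compounds at several concentrations; lipid droplets imaged by 488-nm laser-scanning cytometry, 500–530 nm intensity and object ratio to cell channel. Percent activity normalized to 20 uM Triacsin C.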

[1] = measured here: cell number channel AC50, cells fed with added oleic acid
[2] = measured here: lipid fluorescence (Fed channel) AC50, cells fed with added oleic acid

## O=C(c1cc(COc2cccc3cnccc23)on1)N1CCCC(CCCO)C1 (configuration not stated)
  cell number change: 2.37%
[1]
  AC50: 1.64 µM [falling, partial curve]
[2]
  AC50: 1.03 µM [falling, full curve]

## C=CCn1cccc(C(=O)Nc2ccc(SC)cc2)c1=O
[2]
  AC50: 1.3 µM [falling, full curve]

## N#Cc1ccc(CN2CCN(C(=O)c3ccc(S(=O)(=O)NCc4ccco4)cc3)CC2)cc1
  cell number change: -15.2%
[2]
  AC50: 0.164 µM [falling, full curve, poor fit]

## O=C(CCc1ccc(S(=O)(=O)N2CCOCC2)cc1)NCCCN1CCCC1=O
  cell number change: -4.46%

## COc1ccc(NC(=O)COc2ccc(C(=O)c3ccc(F)cc3)cc2)cc1S(N)(=O)=O
  cell number change: 5.42%
[2]
  AC50: 0.146 µM [rising, single point]

## Cc1ccc(NC(=O)CSCC(=O)O)c(C)c1
  cell number change: -47.6%
[1]
  AC50: 29.1 µM [falling, single point]

## CN(C(=O)CSc1nc2ccccc2c(=O)n1-c1ccc(F)cc1)C1CCS(=O)(=O)C1 (configuration not stated)
  cell number change: -6.26%
[2]
  AC50: 6.51 µM [falling, full curve]

## CCCCSc1nnc(CCCCCNC(=O)OC(C)(C)C)o1
  cell number change: 4.37%
[1]
  AC50: 0.517 µM [falling, full curve, poor fit]

## CN(/C=C/C(=C/C=[N+](C)c1ccccc1)OCCCS(=O)(=O)[O-])c1ccccc1
  cell number change: -47.9%
[1]
  AC50: 4.11 µM [falling, full curve]
[2]
  AC50: 4.11 µM [falling, full curve]

## Cc1ccc(N(C(=O)CNC(=O)c2cccs2)C(C(=O)NC2CCCC2)c2ccncc2)cc1 (configuration not stated)
  cell number change: -21.8%
[2]
  AC50: 6.51 µM [rising, partial curve]

## CC1Cc2cc(C(=O)O)ccc2O1 (configuration not stated)
  cell number change: -9.31%
[2]
  AC50: 16.4 µM [rising, single point]

## Cc1ccc(C)c(OCC(O)CN2CCC(C)CC2)c1C (configuration not stated)
  cell number change: 7.22%
[2]
  AC50: 0.259 µM [rising, partial curve, poor fit]

## Cc1ccc(/C=N/NC(=O)C2CC(=O)N(c3ccccc3)C2)s1 (configuration not stated)
  cell number change: 102%
[1]
  AC50: 11.6 µM [rising, partial curve]
[2]
  AC50: 29.1 µM [rising, single point]

## CSc1nc(C)c(CCOCc2ccccc2)c(=O)[nH]1
  cell number change: -43.5%
[2]
  AC50: 25.9 µM [falling, partial curve]

## O=C(Cn1c(=O)oc2cc(S(=O)(=O)N3CCCC3)ccc21)N1CCc2ccccc2C1
  cell number change: 28.3%
[2]
  AC50: 29.1 µM [rising, single point]

## O=C(O)c1ccc(N2C(=O)CC(Cc3ccccc3)C2=O)cc1 (configuration not stated)
  cell number change: -17.9%
[2]
  AC50: 0.13 µM [falling, full curve]

## O=C(OCc1nnc(-c2ccc(Br)cc2)o1)c1cncc(Br)c1
  cell number change: 35.3%
[1]
  AC50: 35.5 µM [rising, single point]
[2]
  AC50: 6.31 µM [falling, single point]

## c1ccc(OCCN2CCOCC2)cc1
  cell number change: 2.46%

## CCc1ccccc1OCC(=O)Nc1ccc(F)c(S(=O)(=O)N2CCOCC2)c1
[2]
  AC50: 0.103 µM [falling, full curve, poor fit]

## COc1ccc(NC(=O)c2ccc3ncsc3c2)c2ccccc12
  cell number change: 16.9%
[2]
  AC50: 1.64 µM [rising, full curve, poor fit]

## O=C(Cc1csc(N2CCOCC2)n1)N/N=C/c1ccc(F)cc1
  cell number change: 42.2%
[1]
  AC50: 4.61 µM [rising, full curve]
[2]
  AC50: 2.31 µM [rising, partial curve]

## CCc1cc(C(=O)c2ccc(OC)cc2)c(NC(=O)CC(C)(C)CC(=O)O)s1
  cell number change: -21%
[1]
  AC50: 0.731 µM [falling, full curve, poor fit]

## Cc1cc(C)nc(N2CCCC(C(=O)NCc3ccccc3F)C2)n1 (configuration not stated)
  cell number change: 10.9%
[2]
  AC50: 2.59 µM [rising, full curve, poor fit]

## COc1ccc(Cc2nnc(NC(=O)Nc3ccccc3F)s2)cc1OC
  cell number change: -25%

## CCOC(=O)c1cc(C#N)c(SCC(=O)O)[nH]c1=O
  cell number change: -97.1%

## CCNC(=O)Nc1cc2nc(C)n(Cc3ccc(Br)cc3)c2nc1C
[1]
  AC50: 0.291 µM [rising, partial curve]
[2]
  AC50: 0.164 µM [rising, full curve]

## Cc1ccc(-c2nc(=S)c3c(n2Cc2ccco2)CCCC3)cc1
[1]
  AC50: 3.26 µM [rising, single point]

## Cc1cccc(NC(=O)c2ccccn2)c1C
  cell number change: 27.1%
[1]
  AC50: 0.184 µM [rising, full curve, poor fit]
[2]
  AC50: 2.06 µM [rising, full curve]

## Cc1cc(O)ccc1N/C=C1\CCCC1=O
  cell number change: -10%
[2]
  AC50: 7.31 µM [rising, single point]

## Cn1cc([N+](=O)[O-])c(C(=O)N/N=C/c2ccc3c(c2)OCO3)n1
[1]
  AC50: 0.0731 µM [falling, single point]
[2]
  AC50: 0.146 µM [falling, partial curve, poor fit]

## CC(C)(C)c1ccc(C(=O)NCCC(=O)NCc2ccco2)cc1
  cell number change: 9.07%
[1]
  AC50: 6.51 µM [falling, single point]

## COc1cc(/C=N/NC(=O)C2c3ccccc3Oc3ccccc32)ccc1O
  cell number change: -45.3%
[1]
  AC50: 0.00461 µM [falling, full curve, poor fit]

## Cc1ccc(NC(=O)Nc2ccc3c(c2)C(=O)OC3)cc1Cl
  cell number change: 15.5%
[2]
  AC50: 1.64 µM [rising, full curve]

## CC1(C)CC(=O)c2c(n(-c3cccc4ccccc34)ccc2=O)C1
  cell number change: 2.21%

## CCOC(=O)Cn1c(=O)c(-c2ccccc2NC)nc2ccccc21
  cell number change: -28.4%
[1]
  AC50: 0.517 µM [rising, full curve]

## CCOC(=O)C1(Cc2cccc(OC)c2)CCCN(S(=O)(=O)CC)C1 (configuration not stated)
  cell number change: 0.246%
[2]
  AC50: 0.58 µM [rising, single point]

## O=C(c1ccc(Cl)cc1)C(CN1CCCCC1)c1ccccc1 (configuration not stated)
  cell number change: -66.2%
[1]
  AC50: 18.4 µM [falling, single point]
[2]
  AC50: 29.1 µM [falling, single point]

## Cc1cccc2sc(NC(=O)CSc3nc4ccccc4o3)nc12
  cell number change: -5.86%
[1]
  AC50: 0.116 µM [rising, partial curve]
[2]
  AC50: 6.51 µM [rising, partial curve, poor fit]

## Cc1ccccc1C(=O)N/N=C1/SCC(=O)N1Cc1ccc2c(c1)OCO2
  cell number change: 3.88%
[2]
  AC50: 0.13 µM [rising, full curve, poor fit]

## Cc1ccc(S(=O)(=O)N2CCC(C(=O)N/N=C/c3ccccc3[N+](=O)[O-])CC2)cc1
  cell number change: -9.63%
[1]
  AC50: 0.731 µM [falling, single point]
[2]
  AC50: 0.058 µM [falling, full curve, poor fit]

## COC(=O)c1ccc(OCC(=O)c2ccc(C)c(C)c2)cc1
[2]
  AC50: 25.9 µM [rising, partial curve]

## COc1cccc2cc(C(=O)NCc3ccc(Cl)cc3)c(=N)oc12
  cell number change: 54.4%
[1]
  AC50: 35.5 µM [rising, single point]
[2]
  AC50: 4.47 µM [rising, partial curve, poor fit]

## CCOC(=O)N1CCN(c2cc(NCCC(=O)O)c3c4c(onc24)-c2ccccc2C3=O)CC1
  cell number change: -271%
[1]
  AC50: 23.1 µM [falling, single point]

## O=C(c1cccc(F)c1)n1nnc2ccccc21
  cell number change: -28.6%
[1]
  AC50: 3.66 µM [falling, full curve, poor fit]
[2]
  AC50: 29.1 µM [falling, single point]

## COc1ccccc1NC(=O)c1[nH]c(C)c(C(C)=O)c1C
  cell number change: 2.14%
[2]
  AC50: 3.26 µM [falling, full curve, poor fit]

## COc1ccc(CNC(=O)CN(c2cc(C)cc(C)c2)S(=O)(=O)c2c(C)noc2C)cc1
[2]
  AC50: 0.731 µM [rising, full curve, poor fit]

## O=C(Nc1ccccc1C(=O)NCc1ccccc1)c1ccccc1Br
  cell number change: 8.31%
[1]
  AC50: 6.51 µM [rising, partial curve, poor fit]

## COc1ccccc1OCC(=O)N1CC2(C)CC1CC(C)(C)C2 (configuration not stated)
  cell number change: 48.1%
[1]
  AC50: 13 µM [rising, partial curve]
[2]
  AC50: 20.6 µM [rising, partial curve]

## CCCNC(=O)c1ccc2c(=O)n3c(-c4ccc(C)cc4)csc3nc2c1
  cell number change: 12.6%
[2]
  AC50: 11.6 µM [rising, single point]

## CC1(C)NC(=O)N(CC(=O)N2CCN(S(=O)(=O)c3cc(Cl)ccc3Cl)CC2)C1=O
  cell number change: -10.7%

## O=C(Cn1c(CO)nc2ccccc21)Nc1ccc2c(c1)OCCCO2
  cell number change: -15.2%

## O=C(NNc1cccc(Cl)n1)c1ccc(Cl)nc1
  cell number change: 4.3%
[2]
  AC50: 29.1 µM [rising, single point]

## COc1ccccc1N(CC(=O)N/N=C/c1ccc(SC)cc1)S(C)(=O)=O
  cell number change: 26.5%
[2]
  AC50: 16.4 µM [rising, partial curve]

## Cc1ccc(NC(=O)C(=Cc2ccc(C(=O)O)cc2)C(=O)Nc2ccc(C)cc2C)c(C)c1
  cell number change: -37.1%

## Cc1ccc(NC(=O)CNCc2cccs2)cc1Br
  cell number change: 8.11%

## CC1N(C(=O)N(C)C)CCN1S(=O)(=O)c1ccccc1 (configuration not stated)
  cell number change: -12.5%

## COc1cc2c(cc1OC)CN(C(=O)CCOc1ccccc1)CC2
  cell number change: -2.86%

## COC(=O)c1ccccc1NC(=O)CSc1ccc(C)cc1
  cell number change: 19.1%
[2]
  AC50: 7.31 µM [rising, partial curve]

## COc1ccc2cc(CN(Cc3ccco3)Cc3nnnn3C3CCCCC3)c(=O)[nH]c2c1
  cell number change: -36.4%
[1]
  AC50: 29.1 µM [falling, single point]
[2]
  AC50: 18.4 µM [falling, single point]

## CCc1ccc(NC(=O)C2CCCN2S(=O)(=O)c2ccc3c(c2)n(C)c(=O)c(=O)n3C)cc1 (configuration not stated)
  cell number change: 11.6%
[2]
  AC50: 20.6 µM [rising, partial curve, poor fit]
